These are yes or no findings as the source states them, for the method shown. In cells and extracts the contact can be indirect. Binding can be weak; no strength is given. For part of these data: Tags and fused reporters may be left off the sequences shown.
Assays:
[1] = target: HA-PUB17; test: co-IP; tagged proteins co-expressed by agroinfiltration in leaves; extract after 3 days incubated with epitope antibody agarose conjugates (anti-GFP or anti-HA) 3-4 hours at 4°C; blots with anti-HA and anti-GFP; MG132 treatment for POB1 with HA-PUB17 (Fig 7E)
[2] = target: YC-PUB17; test: split reporter; BiFC with split YFP (YN, YC) co-expressed in N. benthamiana leaves, MG132 (100 μM) infiltrated 5 hours before confocal imaging

B1: POB1 expressed in planta (HA-POB1 and GFP-POB1) (protein, UniProt Q9FPW6 1-561)
chain: MRGTTENTDLFDPKTQMDPDFTRHGSSSDGDFGFAFNDSNFSDRLLRIEIMGGPSDSRSEVEGCTSIADWARHRKRRREDIKKESGVTISDIVACPEEQILTDEQPDMDGCPGGENPDDEGGEAMVEEALSGDEEETSSEPNWGMDCSTVVRVKELHISSPILAAKSPFFYKLFSNGMRESEQRHVTLRINASEEAALMELLNFMYSNAVSVTTAPALLDVLMAADKFEVASCMRYCSRLLRNMPMTPESALLYLELPSSVLMAKAVQPLTDAAKQFLAARYKDITKFHEEVMSLPLAGIEAILSSDELQIASEDAVYDFILKWARAQYPCLEERREILGSRLALSIRFPFMTCRKLKKVLTCSDFEHEIASKLVLEALFFKAEAPHRQRSLASEESASLNRRLIERAYKYRPVKVVEFELPRPQCVVYLDLKREECGGLFPSGRVYSQAFHLGGQGFFLSAHCNMDQQSSFHCFGLFLGMQEKGSVSFGVDYEFSARSKPAEDFISKYKGNYTFTGGKAVGYRNLFGVPWTSFIAEDSQYFINGILHLRAELTIKRSTDP
- binding [1]: binds

B2: POB1^D146A expressed in planta (HA-POB1^D146A and GFP-POB1^D146A) (protein, UniProt Q9FPW6 1-561)
chain: MRGTTENTDLFDPKTQMDPDFTRHGSSSDGDFGFAFNDSNFSDRLLRIEIMGGPSDSRSEVEGCTSIADWARHRKRRREDIKKESGVTISDIVACPEEQILTDEQPDMDGCPGGENPDDEGGEAMVEEALSGDEEETSSEPNWGMACSTVVRVKELHISSPILAAKSPFFYKLFSNGMRESEQRHVTLRINASEEAALMELLNFMYSNAVSVTTAPALLDVLMAADKFEVASCMRYCSRLLRNMPMTPESALLYLELPSSVLMAKAVQPLTDAAKQFLAARYKDITKFHEEVMSLPLAGIEAILSSDELQIASEDAVYDFILKWARAQYPCLEERREILGSRLALSIRFPFMTCRKLKKVLTCSDFEHEIASKLVLEALFFKAEAPHRQRSLASEESASLNRRLIERAYKYRPVKVVEFELPRPQCVVYLDLKREECGGLFPSGRVYSQAFHLGGQGFFLSAHCNMDQQSSFHCFGLFLGMQEKGSVSFGVDYEFSARSKPAEDFISKYKGNYTFTGGKAVGYRNLFGVPWTSFIAEDSQYFINGILHLRAELTIKRSTDP
- binding [1]: binds weakly

B3: YN-POB1 (protein, UniProt Q9FPW6 1-561)
chain: MRGTTENTDLFDPKTQMDPDFTRHGSSSDGDFGFAFNDSNFSDRLLRIEIMGGPSDSRSEVEGCTSIADWARHRKRRREDIKKESGVTISDIVACPEEQILTDEQPDMDGCPGGENPDDEGGEAMVEEALSGDEEETSSEPNWGMDCSTVVRVKELHISSPILAAKSPFFYKLFSNGMRESEQRHVTLRINASEEAALMELLNFMYSNAVSVTTAPALLDVLMAADKFEVASCMRYCSRLLRNMPMTPESALLYLELPSSVLMAKAVQPLTDAAKQFLAARYKDITKFHEEVMSLPLAGIEAILSSDELQIASEDAVYDFILKWARAQYPCLEERREILGSRLALSIRFPFMTCRKLKKVLTCSDFEHEIASKLVLEALFFKAEAPHRQRSLASEESASLNRRLIERAYKYRPVKVVEFELPRPQCVVYLDLKREECGGLFPSGRVYSQAFHLGGQGFFLSAHCNMDQQSSFHCFGLFLGMQEKGSVSFGVDYEFSARSKPAEDFISKYKGNYTFTGGKAVGYRNLFGVPWTSFIAEDSQYFINGILHLRAELTIKRSTDP
- binding [2]: binds
